At least one read-out could not be matched to a standard name with certainty.
Assay: Solubilization of ceramide NS in glycol solvents
Format: physicochemical

In the case of “ceramide NS (2S, 3R) [ceramide NS (2S,3R)]”, the solubilization (in butylene glycol) is reported as “can be solubilized” and the solubilization (in other solvents, such as pentylene glycol) is reported as “can not be solubilized”.

From patent US20080103207A1, “TOPICAL CERAMIDE COMPOSITIONS AND METHODS OF USE” (Takasago International Corp. (USA), priority 2006, published 2008)
